# Laboratory results: the supplement of paper PMC10849652
# Chains of the proteins cited; added tags and fusions are not shown. Lines headed by an entry give the natural chain unless they say otherwise; changes in a name come on top.
# UniProt O95104: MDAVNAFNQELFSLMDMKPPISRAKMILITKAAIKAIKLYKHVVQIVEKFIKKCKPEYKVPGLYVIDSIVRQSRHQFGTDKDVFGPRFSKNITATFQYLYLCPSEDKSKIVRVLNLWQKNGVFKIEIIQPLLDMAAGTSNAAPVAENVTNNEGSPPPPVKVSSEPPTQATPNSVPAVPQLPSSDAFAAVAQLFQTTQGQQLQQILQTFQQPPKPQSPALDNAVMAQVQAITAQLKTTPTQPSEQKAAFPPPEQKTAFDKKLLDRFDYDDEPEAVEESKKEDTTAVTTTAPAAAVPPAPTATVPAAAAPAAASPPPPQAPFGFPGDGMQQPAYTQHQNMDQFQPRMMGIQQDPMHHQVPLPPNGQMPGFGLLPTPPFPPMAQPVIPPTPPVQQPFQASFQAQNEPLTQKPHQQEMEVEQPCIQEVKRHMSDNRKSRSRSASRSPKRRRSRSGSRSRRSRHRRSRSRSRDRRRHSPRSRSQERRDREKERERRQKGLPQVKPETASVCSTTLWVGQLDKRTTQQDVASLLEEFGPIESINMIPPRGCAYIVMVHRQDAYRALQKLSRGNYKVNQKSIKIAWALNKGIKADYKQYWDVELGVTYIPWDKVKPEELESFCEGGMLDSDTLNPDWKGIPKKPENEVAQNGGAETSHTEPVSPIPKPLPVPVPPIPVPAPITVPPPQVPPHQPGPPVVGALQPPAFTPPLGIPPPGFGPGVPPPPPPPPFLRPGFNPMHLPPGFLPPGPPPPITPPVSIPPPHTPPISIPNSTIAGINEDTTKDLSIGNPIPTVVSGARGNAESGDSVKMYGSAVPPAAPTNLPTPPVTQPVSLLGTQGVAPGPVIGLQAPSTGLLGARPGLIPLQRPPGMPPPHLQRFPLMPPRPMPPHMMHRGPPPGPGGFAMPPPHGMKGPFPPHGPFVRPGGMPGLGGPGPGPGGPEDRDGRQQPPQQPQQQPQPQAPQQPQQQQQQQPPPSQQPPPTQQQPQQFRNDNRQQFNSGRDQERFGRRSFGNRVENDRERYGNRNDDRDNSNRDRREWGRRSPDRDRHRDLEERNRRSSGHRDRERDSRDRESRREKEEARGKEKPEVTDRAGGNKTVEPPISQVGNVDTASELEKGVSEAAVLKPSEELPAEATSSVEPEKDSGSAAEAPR
# UniProt Q9HCY8: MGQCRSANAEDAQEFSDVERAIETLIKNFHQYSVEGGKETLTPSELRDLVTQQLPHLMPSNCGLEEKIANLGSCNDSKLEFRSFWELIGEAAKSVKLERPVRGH
# UniProt O75845: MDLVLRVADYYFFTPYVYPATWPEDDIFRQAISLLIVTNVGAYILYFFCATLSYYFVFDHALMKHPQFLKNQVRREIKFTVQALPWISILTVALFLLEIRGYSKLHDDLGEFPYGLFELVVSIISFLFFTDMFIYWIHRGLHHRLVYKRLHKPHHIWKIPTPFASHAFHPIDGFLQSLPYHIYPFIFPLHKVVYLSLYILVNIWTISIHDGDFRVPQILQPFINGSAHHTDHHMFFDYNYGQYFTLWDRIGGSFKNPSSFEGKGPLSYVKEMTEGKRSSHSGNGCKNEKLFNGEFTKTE
# UniProt Q9NX18: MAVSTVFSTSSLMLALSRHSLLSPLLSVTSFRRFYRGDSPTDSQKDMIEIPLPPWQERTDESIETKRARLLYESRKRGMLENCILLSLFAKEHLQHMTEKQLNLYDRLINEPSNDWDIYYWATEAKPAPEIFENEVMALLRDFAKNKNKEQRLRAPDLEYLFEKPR
# UniProt Q7L099: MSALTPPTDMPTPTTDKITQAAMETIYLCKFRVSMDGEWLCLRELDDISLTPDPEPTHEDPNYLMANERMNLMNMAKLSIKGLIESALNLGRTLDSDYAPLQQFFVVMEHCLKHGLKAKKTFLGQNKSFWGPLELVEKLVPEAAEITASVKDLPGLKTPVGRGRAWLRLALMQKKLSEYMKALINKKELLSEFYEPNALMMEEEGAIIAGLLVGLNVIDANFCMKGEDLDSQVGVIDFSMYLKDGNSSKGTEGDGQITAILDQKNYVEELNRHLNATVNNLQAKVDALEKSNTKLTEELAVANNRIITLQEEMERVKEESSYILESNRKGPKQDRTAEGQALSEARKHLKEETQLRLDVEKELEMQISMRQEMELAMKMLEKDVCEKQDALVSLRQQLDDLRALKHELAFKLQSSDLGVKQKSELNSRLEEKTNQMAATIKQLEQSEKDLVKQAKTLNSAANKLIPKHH
# UniProt Q9NQC3: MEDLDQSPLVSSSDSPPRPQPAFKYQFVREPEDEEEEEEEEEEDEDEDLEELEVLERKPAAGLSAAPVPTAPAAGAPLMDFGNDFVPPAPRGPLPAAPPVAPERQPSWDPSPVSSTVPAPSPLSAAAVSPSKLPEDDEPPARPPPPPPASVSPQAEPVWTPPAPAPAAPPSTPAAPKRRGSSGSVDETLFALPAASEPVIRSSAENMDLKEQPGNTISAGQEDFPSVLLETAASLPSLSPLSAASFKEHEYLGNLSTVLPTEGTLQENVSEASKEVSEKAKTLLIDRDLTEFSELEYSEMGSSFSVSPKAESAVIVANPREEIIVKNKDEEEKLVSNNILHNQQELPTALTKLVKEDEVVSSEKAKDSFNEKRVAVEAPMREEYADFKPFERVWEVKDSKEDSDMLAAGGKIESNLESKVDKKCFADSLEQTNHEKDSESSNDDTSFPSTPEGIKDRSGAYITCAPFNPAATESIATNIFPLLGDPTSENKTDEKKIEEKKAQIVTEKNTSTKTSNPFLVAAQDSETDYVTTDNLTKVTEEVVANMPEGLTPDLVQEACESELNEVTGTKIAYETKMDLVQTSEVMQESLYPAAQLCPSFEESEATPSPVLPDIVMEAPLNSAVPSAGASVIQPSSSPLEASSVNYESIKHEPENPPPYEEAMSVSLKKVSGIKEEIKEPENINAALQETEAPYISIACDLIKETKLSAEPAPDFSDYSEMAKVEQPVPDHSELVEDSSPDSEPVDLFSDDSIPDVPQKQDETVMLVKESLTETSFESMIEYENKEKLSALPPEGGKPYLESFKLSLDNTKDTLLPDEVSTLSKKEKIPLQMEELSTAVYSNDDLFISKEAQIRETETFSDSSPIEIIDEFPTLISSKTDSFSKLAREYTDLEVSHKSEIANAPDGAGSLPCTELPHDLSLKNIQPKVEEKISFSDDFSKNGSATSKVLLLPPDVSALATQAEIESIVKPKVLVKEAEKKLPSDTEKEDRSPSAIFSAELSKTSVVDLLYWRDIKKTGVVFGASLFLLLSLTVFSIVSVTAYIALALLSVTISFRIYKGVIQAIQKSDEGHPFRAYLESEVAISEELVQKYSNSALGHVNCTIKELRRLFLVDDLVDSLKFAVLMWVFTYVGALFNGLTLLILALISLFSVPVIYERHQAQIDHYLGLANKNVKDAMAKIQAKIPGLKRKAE
# UniProt Q96EU6: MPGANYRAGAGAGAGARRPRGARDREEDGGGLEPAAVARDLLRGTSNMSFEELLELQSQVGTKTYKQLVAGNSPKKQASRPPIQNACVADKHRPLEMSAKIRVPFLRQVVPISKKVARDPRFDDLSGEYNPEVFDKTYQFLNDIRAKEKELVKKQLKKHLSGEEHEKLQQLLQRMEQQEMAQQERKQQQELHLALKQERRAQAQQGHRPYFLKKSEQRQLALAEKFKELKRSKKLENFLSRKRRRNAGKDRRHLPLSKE
# UniProt Q8WXD2: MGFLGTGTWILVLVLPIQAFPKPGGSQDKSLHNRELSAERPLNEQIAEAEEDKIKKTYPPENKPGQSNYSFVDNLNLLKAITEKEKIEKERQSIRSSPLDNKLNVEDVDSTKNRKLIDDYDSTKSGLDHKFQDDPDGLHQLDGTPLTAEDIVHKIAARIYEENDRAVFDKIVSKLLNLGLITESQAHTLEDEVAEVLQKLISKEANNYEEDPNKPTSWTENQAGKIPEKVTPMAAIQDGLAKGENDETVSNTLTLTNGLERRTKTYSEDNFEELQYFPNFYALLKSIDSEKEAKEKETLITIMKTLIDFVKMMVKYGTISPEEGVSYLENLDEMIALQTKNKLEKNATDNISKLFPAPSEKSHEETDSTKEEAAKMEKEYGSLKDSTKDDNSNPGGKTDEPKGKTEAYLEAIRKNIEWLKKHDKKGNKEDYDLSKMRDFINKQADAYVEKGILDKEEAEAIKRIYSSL
# UniProt O15127: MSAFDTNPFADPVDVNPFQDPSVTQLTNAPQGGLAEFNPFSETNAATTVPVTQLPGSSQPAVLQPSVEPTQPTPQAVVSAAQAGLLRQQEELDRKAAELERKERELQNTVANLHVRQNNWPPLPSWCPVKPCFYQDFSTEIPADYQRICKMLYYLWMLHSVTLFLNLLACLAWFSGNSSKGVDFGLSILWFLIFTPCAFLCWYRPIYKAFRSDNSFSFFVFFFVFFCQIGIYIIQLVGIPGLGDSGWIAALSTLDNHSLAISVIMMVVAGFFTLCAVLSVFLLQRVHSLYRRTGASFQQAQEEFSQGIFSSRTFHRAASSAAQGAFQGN
# UniProt Q9NRG7: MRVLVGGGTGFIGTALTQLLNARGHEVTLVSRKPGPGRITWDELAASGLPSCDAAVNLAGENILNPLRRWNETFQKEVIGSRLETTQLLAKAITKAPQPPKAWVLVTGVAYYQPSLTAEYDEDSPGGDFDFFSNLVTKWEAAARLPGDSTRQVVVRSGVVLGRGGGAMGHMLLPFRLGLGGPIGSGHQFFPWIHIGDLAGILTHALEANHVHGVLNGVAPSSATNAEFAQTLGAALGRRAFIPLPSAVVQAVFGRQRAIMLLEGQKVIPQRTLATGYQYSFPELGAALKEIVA
# UniProt Q9BY42: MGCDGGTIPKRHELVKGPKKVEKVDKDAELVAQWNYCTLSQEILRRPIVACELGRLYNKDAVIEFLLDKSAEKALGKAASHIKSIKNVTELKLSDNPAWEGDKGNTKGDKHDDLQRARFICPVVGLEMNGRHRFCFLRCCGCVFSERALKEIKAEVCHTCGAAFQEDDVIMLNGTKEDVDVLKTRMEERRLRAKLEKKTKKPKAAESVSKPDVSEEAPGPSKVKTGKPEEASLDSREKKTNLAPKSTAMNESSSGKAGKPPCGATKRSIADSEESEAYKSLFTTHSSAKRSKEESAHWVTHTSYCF
# UniProt Q5VUM1: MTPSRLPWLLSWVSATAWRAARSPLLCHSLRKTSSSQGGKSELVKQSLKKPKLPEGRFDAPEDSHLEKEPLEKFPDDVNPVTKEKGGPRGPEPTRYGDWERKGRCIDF
# UniProt Q01196, whole entry, looked up: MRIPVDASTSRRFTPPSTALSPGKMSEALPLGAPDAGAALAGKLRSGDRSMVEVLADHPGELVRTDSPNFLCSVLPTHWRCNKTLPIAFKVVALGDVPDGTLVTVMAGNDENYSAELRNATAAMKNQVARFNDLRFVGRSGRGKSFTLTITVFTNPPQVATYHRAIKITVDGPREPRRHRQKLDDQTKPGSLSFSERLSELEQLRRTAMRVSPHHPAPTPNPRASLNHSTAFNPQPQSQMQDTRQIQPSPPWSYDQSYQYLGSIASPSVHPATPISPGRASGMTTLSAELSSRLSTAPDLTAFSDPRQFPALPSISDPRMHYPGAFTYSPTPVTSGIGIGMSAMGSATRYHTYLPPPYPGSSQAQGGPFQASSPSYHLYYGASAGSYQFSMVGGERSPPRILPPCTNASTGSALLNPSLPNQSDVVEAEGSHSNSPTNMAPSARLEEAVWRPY
# UniProt Q96IW7: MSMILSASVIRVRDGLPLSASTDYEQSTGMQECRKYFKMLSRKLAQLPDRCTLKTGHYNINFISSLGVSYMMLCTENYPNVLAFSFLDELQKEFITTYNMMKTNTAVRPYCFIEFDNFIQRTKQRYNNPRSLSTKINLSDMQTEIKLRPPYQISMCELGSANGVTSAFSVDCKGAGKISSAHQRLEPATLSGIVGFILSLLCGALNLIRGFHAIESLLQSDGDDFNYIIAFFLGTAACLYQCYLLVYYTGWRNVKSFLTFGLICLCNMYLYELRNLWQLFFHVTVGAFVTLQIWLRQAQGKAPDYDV
# UniProt Q9NTJ5: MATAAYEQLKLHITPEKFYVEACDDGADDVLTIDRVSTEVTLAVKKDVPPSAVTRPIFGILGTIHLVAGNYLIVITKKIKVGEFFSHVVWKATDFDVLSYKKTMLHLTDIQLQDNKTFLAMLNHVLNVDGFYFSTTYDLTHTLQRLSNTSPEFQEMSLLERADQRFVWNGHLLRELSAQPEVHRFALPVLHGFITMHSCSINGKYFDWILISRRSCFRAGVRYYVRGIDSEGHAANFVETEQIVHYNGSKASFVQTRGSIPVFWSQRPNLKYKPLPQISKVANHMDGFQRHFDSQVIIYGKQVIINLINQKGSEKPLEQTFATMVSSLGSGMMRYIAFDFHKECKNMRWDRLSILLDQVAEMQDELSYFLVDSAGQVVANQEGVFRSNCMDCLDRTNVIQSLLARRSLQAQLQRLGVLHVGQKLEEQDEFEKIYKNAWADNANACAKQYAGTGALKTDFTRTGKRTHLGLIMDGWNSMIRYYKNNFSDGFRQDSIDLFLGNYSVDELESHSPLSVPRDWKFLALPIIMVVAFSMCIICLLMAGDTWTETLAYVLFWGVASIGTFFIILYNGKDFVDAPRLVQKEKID
# UniProt P29034: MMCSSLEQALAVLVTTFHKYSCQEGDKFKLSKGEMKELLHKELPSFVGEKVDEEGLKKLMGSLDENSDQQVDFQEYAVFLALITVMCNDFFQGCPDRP
# This is one part of the list.
# Compound: C1=CC2=C(C=CC(=C2)/C=C\3/C(=O)NC(=NCC4=CC=CS4)S3)N=C1
# Assay: log2 fold change, soluble protein after heating vs DMSO (PISA); higher = thermal stabilisation; K562 cells, 10 uM, 30 min; active = over 0.2 and 3.5 SD of the protein, either way, in both replicates (recomputed)
# Summary of the method: (§1)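 K562 cells at 2×10^6 cells/mL were treated for 30 min with 10 μM compound, and aliquots were heated for 3 min over 48°C-58°C before pooling. Extraction used PBS with 0.5% NP-40 at 4°C, and soluble protein was the supernatant after 21,000xg for 90 min, measured by TMTpro 16plex LC-MS/MS with channel sums equalised. Thermal stability values, relative to control samples and from duplicates, are log2 fold changes.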
row,Target,log2 fold change
1,SCAF4 (UniProt O95104),inactive: -0.015
2,RSPRY1 (UniProt Q96DX4),inactive: 0.017
3,S100A14 (UniProt Q9HCY8),inactive: 0.069
4,SC5D (UniProt O75845),inactive: 0.026
5,RSL24D1 (UniProt Q9UHA3),inactive: 0.153
6,SDHAF2 (UniProt Q9NX18),inactive: -0.102
7,RUFY3 isoform 3 (UniProt Q7L099),inactive: -0.028
8,RTN4 isoform 5 (UniProt Q9NQC3),inactive: -0.004

# Compound: C1=CC2=NC=CN=C2C=C1/C=C/3\C(=O)NC(=O)S3
# Assay: as above
# Summary of the method: as §1
row,Target,log2 fold change
1,RRP36 (UniProt Q96EU6),inactive: -0.06
2,SCAMP2 (UniProt H3BUB6),inactive: -0.163
3,SDHD (UniProt O14521),inactive: 0.099
4,SCG3 (UniProt Q8WXD2),inactive: -0.015
5,SCYL3 isoform 2 (UniProt Q8IZE3),inactive: -0.024
6,SCAMP2 (UniProt O15127),inactive: 0.063
7,"SDHB, A0A087WXX8",inactive: 0.121
8,SDR39U1 (UniProt Q9NRG7),inactive: -0.003
9,RTF2 (UniProt Q9BY42),inactive: -0.023
10,SDHAF4 (UniProt Q5VUM1),inactive: 0.033
11,RSRC2 (UniProt Q7L4I2),inactive: 0.018
12,SCGB1D2 (UniProt O95969),inactive: -0.247
13,RUNX1 isoform 8 (UniProt Q01196),inactive: 0.032
14,SEC22A (UniProt Q96IW7),inactive: 0.013
15,SACM1L (UniProt Q9NTJ5),inactive: -0.007
16,RSF1 (UniProt Q96T23),inactive: 0.012
17,SAMD4B (UniProt Q5PRF9),inactive: 0.124
18,"SDHB, A0A087WWT1",inactive: 0.134
19,S100A2 (UniProt P29034),inactive: -0.093
20,SCAF4 (UniProt O95104),inactive: 0.045
21,RSPRY1 (UniProt Q96DX4),inactive: -0.042
22,S100A14 (UniProt Q9HCY8),inactive: -0.364
23,SC5D (UniProt O75845),inactive: 0.052
24,RSL24D1 (UniProt Q9UHA3),inactive: 0.019
25,SDHAF2 (UniProt Q9NX18),inactive: 0.051
